PMC8366683 (Future oncology (London, England), 2013)

Assays:
KB-3-1 = experiment: cells; settings: Homo sapiens, KB 3-1, 72 h, read-out: IC50 ± SD^†; nM (resistance fold) / KB-3-1
HEK293/pcDNA3.1 = experiment: cells; settings: Homo sapiens, HEK293, 72 h, read-out: IC50 ± SD^†; nM (resistance fold) / HEK293/pcDNA3.1

COc1cc2c(c(OC)c1OC)-c1ccc(OC)c(=O)cc1[C@@H](NC(C)=O)CC2 [Colchicine]
IC50 (KB-3-1): 19 nM | IC50 (HEK293/pcDNA3.1): 20.4 nM
